Data: article PMC13469816
These are yes or no findings as the source states them, for the method shown. Some results given as binding are weak or reduced against the parent protein; the word gives no strength.

Amino acid sequences for entries named in this document (tags omitted).
UniProt P28033: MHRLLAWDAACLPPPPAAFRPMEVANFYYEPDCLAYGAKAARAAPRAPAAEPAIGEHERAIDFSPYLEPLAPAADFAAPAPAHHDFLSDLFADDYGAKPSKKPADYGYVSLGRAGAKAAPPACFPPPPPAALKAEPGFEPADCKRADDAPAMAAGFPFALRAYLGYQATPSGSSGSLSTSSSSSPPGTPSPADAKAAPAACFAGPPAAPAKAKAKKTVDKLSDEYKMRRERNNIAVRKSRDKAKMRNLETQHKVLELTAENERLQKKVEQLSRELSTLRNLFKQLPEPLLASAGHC

Target: C/EBPβ (mouse, in 3T3^RAS-β^UTR cells) (mouse) (UniProt P28033)
Experiment: native gel or EMSA; nuclear extracts of 3T3^RAS-β^UTR cells (control or Upf1-depleted) with a 32P-labelled double-stranded consensus C/EBP site probe, native PAGE; homodimer species on DNA

In the case of “C/EBPβ (mouse, in 3T3^RAS-β^UTR cells) (from UniProt P28033 1-296)”, the binding is reported as “binds”.
